PubChem BioAssay AID1224830, NIAID, 2016

Test: 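Regulators of TLR4 signalling towards TNF-alpha in macrophage-like cells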 (primary screen)
System: human THP-1 monocytic leukaemia cells, TNF dual-luciferase reporter clone, PMA-differentiated to macrophage-like cells
Reagents: siRNA pool against human genes, 50 nM
Duration: LPS for 4 h, given about 3 days after siRNA transfection
Challenge: bacterial LPS (TLR4 ligand), 10 ng/ml
Measurement: 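TNF firefly reporter luminescence divided by renilla, normalised to the plate median, then turned into a robust z-score for each replicate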
Scale: TNF reporter robust z-score: higher = stronger TNF reporter response to LPS
Hit rule: 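a well is active when its z-score exceeds 2.8 or falls below -1.5; control wells carry no call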
In all, the deposit lists about 18,000 reagents; this is a part drawn at random. About 2,900 of them (16%) count as active. 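Calls are made per well; low scores hint the gene aids the LPS response, high scores that it dampens it.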 The numbers tell different reagents against one gene apart. Repeated entries: four replicate wells of each siRNA pool.

gene | pool no. | TNF reporter robust z-score | Call
FAM114A1 (GeneID 92689) | 1 | -0.11 | inactive
FAM114A1 (GeneID 92689) | 1 | 0.55 | inactive
FAM114A1 (GeneID 92689) | 1 | 0.39 | inactive
FAM114A1 (GeneID 92689) | 1 | 2.07 | inactive
CTCFL (GeneID 140690) | 1 | -0.2 | inactive
CTCFL (GeneID 140690) | 1 | -0.67 | inactive
CTCFL (GeneID 140690) | 1 | -0.73 | inactive
CTCFL (GeneID 140690) | 1 | 0 | inactive
BRIP1 (GeneID 83990) | 1 | 0.41 | inactive
BRIP1 (GeneID 83990) | 1 | 0.73 | inactive
BRIP1 (GeneID 83990) | 1 | -0.22 | inactive
BRIP1 (GeneID 83990) | 1 | 0.79 | inactive
KCNC1 (GeneID 3746) | 1 | -0.98 | inactive
KCNC1 (GeneID 3746) | 1 | 1.48 | inactive
KCNC1 (GeneID 3746) | 1 | 3.03 | active
KCNC1 (GeneID 3746) | 1 | 2.52 | inactive
HLA-K (GeneID 3138) | 1 | -0.61 | inactive
HLA-K (GeneID 3138) | 1 | -0.21 | inactive
HLA-K (GeneID 3138) | 1 | -0.64 | inactive
HLA-K (GeneID 3138) | 1 | -1.95 | active
DDX21 (GeneID 9188) | 1 | – | inactive
DDX21 (GeneID 9188) | 1 | 1.2 | inactive
DDX21 (GeneID 9188) | 1 | 0.94 | inactive
DDX21 (GeneID 9188) | 1 | 0.78 | inactive
DDX21 (GeneID 9188) | 1 | 1.02 | inactive
NEBL (GeneID 10529) | 1 | -0.64 | inactive
NEBL (GeneID 10529) | 1 | -0.99 | inactive
NEBL (GeneID 10529) | 1 | -0.7 | inactive
NEBL (GeneID 10529) | 1 | -0.45 | inactive
NEBL (GeneID 10529) | 2 | 1.02 | inactive
NEBL (GeneID 10529) | 2 | -0.67 | inactive
NEBL (GeneID 10529) | 2 | -0.41 | inactive
NEBL (GeneID 10529) | 2 | 0.91 | inactive
KRT15 (GeneID 3866) | 1 | -0.54 | inactive
KRT15 (GeneID 3866) | 1 | -0.56 | inactive
KRT15 (GeneID 3866) | 1 | -1.59 | active
KRT15 (GeneID 3866) | 1 | -0.36 | inactive
CSNK1A1L (GeneID 122011) | 1 | 0.79 | inactive
CSNK1A1L (GeneID 122011) | 1 | 1.69 | inactive
CSNK1A1L (GeneID 122011) | 1 | -1.17 | inactive
CSNK1A1L (GeneID 122011) | 1 | 2.46 | inactive
PEF1 (GeneID 553115) | 1 | -0.45 | inactive
PEF1 (GeneID 553115) | 1 | -0.21 | inactive
PEF1 (GeneID 553115) | 1 | 0.03 | inactive
PEF1 (GeneID 553115) | 1 | -0.38 | inactive
ABLIM2 (GeneID 84448) | 1 | 0.48 | inactive
ABLIM2 (GeneID 84448) | 1 | -0.02 | inactive
ABLIM2 (GeneID 84448) | 1 | 0.62 | inactive
PARP11 (GeneID 57097) | 1 | 1.05 | inactive
PARP11 (GeneID 57097) | 1 | 1.54 | inactive
PARP11 (GeneID 57097) | 1 | 0.74 | inactive
PARP11 (GeneID 57097) | 1 | -0.06 | inactive
LMNB2 (GeneID 84823) | 1 | -0.5 | inactive
LMNB2 (GeneID 84823) | 1 | -0.47 | inactive
LMNB2 (GeneID 84823) | 1 | -0.77 | inactive
LMNB2 (GeneID 84823) | 1 | -0.55 | inactive
SMG6 (GeneID 23293) | 1 | 1.17 | inactive
SMG6 (GeneID 23293) | 1 | -0.77 | inactive
SMG6 (GeneID 23293) | 1 | -0.76 | inactive
SMG6 (GeneID 23293) | 1 | -0.71 | inactive
GPR161 (GeneID 23432) | 1 | 0.32 | inactive
GPR161 (GeneID 23432) | 1 | 0.93 | inactive
GPR161 (GeneID 23432) | 1 | 0.34 | inactive
GPR161 (GeneID 23432) | 1 | 0.56 | inactive
PLCG2 (GeneID 5336) | 1 | 0.36 | inactive
PLCG2 (GeneID 5336) | 1 | 0.94 | inactive
PLCG2 (GeneID 5336) | 1 | 0.78 | inactive
PLCG2 (GeneID 5336) | 1 | 1.43 | inactive
MOAP1 (GeneID 64112) | 1 | – | inactive
MOAP1 (GeneID 64112) | 1 | -0.77 | inactive
MOAP1 (GeneID 64112) | 1 | -0.54 | inactive
MOAP1 (GeneID 64112) | 1 | -1.07 | inactive
MOAP1 (GeneID 64112) | 1 | -0.72 | inactive
CBL (GeneID 867) | 1 | -1.18 | inactive
CBL (GeneID 867) | 1 | 0.63 | inactive
CBL (GeneID 867) | 1 | 1.36 | inactive
CBL (GeneID 867) | 1 | 1.18 | inactive

12 entries already listed, arranged by “TNF reporter robust z-score”, low to high:
gene | pool no. | TNF reporter robust z-score | Call
KRT15 (GeneID 3866) | 1 | -1.59 | active
NEBL (GeneID 10529) | 1 | -0.7 | inactive
NEBL (GeneID 10529) | 2 | -0.67 | inactive
KRT15 (GeneID 3866) | 1 | -0.56 | inactive
KRT15 (GeneID 3866) | 1 | -0.54 | inactive
NEBL (GeneID 10529) | 1 | -0.45 | inactive
NEBL (GeneID 10529) | 2 | -0.41 | inactive
KRT15 (GeneID 3866) | 1 | -0.36 | inactive
CSNK1A1L (GeneID 122011) | 1 | 0.79 | inactive
NEBL (GeneID 10529) | 2 | 0.91 | inactive
NEBL (GeneID 10529) | 2 | 1.02 | inactive
CSNK1A1L (GeneID 122011) | 1 | 1.69 | inactive
